The test is described as follows: IkB Signaling. Conditions: ABC-DLBCL IkBa-CBG/CBR dual luciferase ratio (green luciferase fused to IkBa over red control in OCI-Ly3 lymphoma cells), 4 h. The procedure, abridged: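 Curves were fitted separately to fusion (green), unfused (red) and ratio luminescence, then classed by r2, magnitude and activity. Cells: OCI-Ly3, 4 h compound plus doxycycline at 37C; 10 uM MG-132 defined full response.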
The mark [1] stands for this setting: measured here: control luc red channel unless noted.

This is one part of the list. These are further read-outs of the screen, such as a control signal, another cell line or another target. No call is given for them. The list favours compounds with an active or inconclusive main result. Words in brackets tell the shape of the fitted curve; partial curves, single points and poor fits give uncertain potencies.

Take `Cc1cccc2sc(NC(=O)CCNS(=O)(=O)c3cccs3)nc12`: under setting [1], the half-maximal activity concentration (AC50) is 10 µM [falling, partial curve].

For the molecule `CN(C)c1ccc(C(CNC(=O)c2ccccc2Cl)N2CCCC2)cc1` (configuration not stated), the half-maximal activity concentration (AC50) under setting [1] is 3.16 µM [falling, partial curve]. On the same count and under the same terms, the value for `Cc1cccc(-c2nc(CSCC(=O)N3CCN(c4ccccn4)CC3)c(C)o2)c1` was 5.01 µM [falling, full curve, poor fit]; that for `COc1ccc(N2CCN(CCCNC(=O)c3cnn(-c4ccc(C)cc4)c3-n3cccc3)CC2)cc1` was 6.31 µM [falling, partial curve]. Consider `Cc1ccc2nc(NC(=O)C3CCCN(S(=O)(=O)c4cnc[nH]4)C3)sc2c1` (configuration not stated), for which, under setting [1], the AC50 is 6.31 µM [falling, partial curve]. Same read-out and setting: in the case of `COc1cccc(OCC(=O)NC2CC(=O)N(c3cccc(OC)c3)C2)c1` (configuration not stated) it was 6.31 µM [rising, single point]; in that of `Cc1ccccc1CSc1nc2c(sc3ccccc32)c(=O)n1CCCC(=O)NCCCOC(C)C`, 5.01 µM [falling, partial curve]; in that of `CS(=O)(=O)CC[C@@H](C(=O)NCCc1ccccc1)N1Cc2ccccc2C1=O`, 0.1 µM [rising, full curve, poor fit]. For `Cc1cccc(OCC(=O)N2CCC(c3nc4ccccc4o3)CC2)c1C`, the AC50 under setting [1] was 31.6 µM [falling, single point]. With `COCc1cc(C)nc2c1C(=O)NC(c1ccc(NC(C)=O)cc1)N2Cc1ccccc1` (configuration not stated), the AC50 under setting [1] is 39.8 µM [falling, single point]. Take `COc1ccc(/C=C/c2nc(C#N)c(NCc3ccc(C)cc3)o2)cc1OC`: the half-maximal activity concentration (AC50) under setting [1] is 39.8 µM [falling, single point]. Same read-out and setting: in the case of `Cc1ccc(NC(=O)N2CCC3(CC2)Oc2ccccc2C(=O)N3Cc2ccc(F)cc2)cc1` it was 31.6 µM [falling, single point]; in that of `CCNC(=O)c1ccc2c(c1)sc1nc(-c3cccc(OC)c3)cn12`, 31.6 µM [falling, single point]; in that of `O=C1Nc2ccc(S(=O)(=O)NCc3ccco3)c3cccc1c23`, 20 µM [rising, partial curve] [measured here: IkB-luc green channel].

Turning to `O=C(Cn1cc(SCc2cccc(Cl)c2)c2ccccc21)N1CCCCC1`, the AC50 under setting [1] was 15.8 µM [falling, partial curve]. The same measure, in the same setting: in the case of `CCOc1ccc(NC(=O)CC2C(=O)N(c3ccccc3)C(=O)N2CCc2sccc2C)cc1` (configuration not stated) it was 39.8 µM [falling, single point]. `COc1ccc(S(=O)(=O)c2c(C(=O)c3ccc(C)c(C)c3)cnc3ccc(C)cc23)cc1`: under setting [1], the AC50 is 6.31 µM [falling, partial curve]. For `Fc1ccc(-c2cc(-c3nc(-c4ccc(Cl)cc4)no3)[nH]n2)cc1`, under setting [1], the concentration at half-maximal activity (AC50) was 3.16 µM [rising, full curve]. `COc1cccc(/C=C/c2nc(C#N)c(NC3CCCCC3)o2)c1`: under setting [1], the AC50 is 39.8 µM [falling, partial curve]. On to `CSc1ccc(CCNC(=O)Cn2c(C)c3cnn(-c4ccccc4)c(=O)c3c2C)cc1`, for which the half-maximal activity concentration (AC50) under setting [1] was 2.51 µM [falling, partial curve]. As to `COc1cccc(-n2c(=O)c3sc4ccccc4c3n(Cc3c(F)cccc3Cl)c2=O)c1`, under setting [1], the AC50 was 0.1 µM [rising, full curve]. Turning to `Cc1ccc(-n2nc(CO)c(C(=O)NCCC(C)C)n2)cc1C`, under setting [1], the AC50 is 15.8 µM [falling, single point]. With `O=C(NCc1ccco1)c1cc2sccc2n1Cc1ccccc1`, the concentration at half-maximal activity (AC50) under setting [1] is 20 µM [falling, partial curve]. Still for that read-out and setting: the value for `Cc1ccc(CNC(=O)c2ccc(Cn3c(SCc4ccc(F)cc4)nc4cccnc43)cc2)o1` was 3.16 µM [falling, full curve]; that for `CCCN(C(=O)CCc1nc(-c2ccc(C)cc2)no1)c1ccc(OCC)cc1` was 20 µM [falling, partial curve]; that for `Cc1ccc(N2C(=O)C(CC(=O)Nc3cccc(F)c3)N(CCc3ccccc3F)C2=O)cc1` (configuration not stated) was 3.16 µM [rising, partial curve].

Consider `c1ccc2c(Nc3ccncc3)nc(-c3ccc4c(c3)OCO4)nc2c1`, for which the concentration at half-maximal activity (AC50) under setting [1] was 3.16 µM [falling, single point] [measured here: IkB-luc green channel].

For `CN(C)c1ccc(C(=N)c2ccc(N(C)C)cc2)cc1`, under setting [1], the AC50 is 31.6 µM [falling, partial curve, poor fit]. For the molecule `COc1ccc2c(c1)-c1nc(NC(=O)c3cccc(Br)c3)sc1CC2`, the concentration at half-maximal activity (AC50) under setting [1] is 0.794 µM [falling, partial curve]. Take `Cc1ccc(NC(=O)CN2C(=O)c3cccnc3Sc3ccccc32)c(Br)c1`: the concentration at half-maximal activity (AC50) under setting [1] is 31.6 µM [falling, single point].

With `Cc1ccc(NC(=O)Cn2nnc(-c3ccccc3)n2)c(C)c1`, the AC50 under setting [1] is 7.94 µM [rising, partial curve].

As for `O=C(C1COc2ccccc2O1)N(Cc1cccnc1)c1nc2c(F)cccc2s1` (configuration not stated), under setting [1], the concentration at half-maximal activity (AC50) is 31.6 µM [falling, single point].

As for `CC1CCN(S(=O)(=O)c2cc(C(=O)N3CCN(c4cccc(Cl)c4)CC3)n(C)c2)CC1`, the AC50 under setting [1] is 15.8 µM [falling, single point]. On the same count and under the same terms, the value for `COc1ccc(N(CC(=O)N2CCc3ccccc3C2)S(=O)(=O)c2ccccc2)cc1` was 39.8 µM [falling, single point].

In the case of `COc1ccccc1C1C(C(=O)N2CCCCC2)=C(C)Nc2nc3ccccc3n21` (configuration not stated), the AC50 under setting [1] is 39.8 µM [falling, single point].

Regarding `CCOC(=O)c1nnn(C(CC)C(=O)Nc2ccc(F)cc2)c1C(=O)OCC` (configuration not stated), the half-maximal activity concentration (AC50) under setting [1] is 0.01 µM [falling, full curve, poor fit]. For the molecule `Cc1cccc(-c2noc(-c3ccccc3OCC(=O)Nc3ccccc3[N+](=O)[O-])n2)c1`, under setting [1], the AC50 is 15.8 µM [falling, single point]. Still for that read-out and setting: in the case of `CCOC(=O)c1ccc(NC(=O)C(C)Sc2nc(=O)cc(N)n2CCc2ccccc2)cc1` (configuration not stated) it was 15.8 µM [falling, partial curve]. With `O=C(Nc1scc(-c2cccs2)c1C(=O)O)c1cccs1`, under setting [1], the half-maximal activity concentration (AC50) was 2.51 µM [falling, full curve]. The same measure, in the same setting: the value for `CCn1c(=O)c(C(=O)Nc2ccccc2S(N)(=O)=O)c(O)c2ccccc21` was 0.1 µM [falling, full curve]; that for `CSc1nc(N2CCN(CCO)CC2)c2sc3nc(-c4ccco4)c4c(c3c2n1)CCC4` was 3.16 µM [falling, full curve, poor fit]. In the case of `COc1cc(C(=O)N2CCN(c3cc(Cl)ccc3Cl)CC2)cc(OC)c1OC`, the half-maximal activity concentration (AC50) (measured here: IkB-luc green channel) was 2.51 µM [rising, full curve] and the half-maximal activity concentration (AC50) (measured here: control luc red channel) was 2 µM [rising, full curve]. Turning to `O=C(NCc1ccccc1Cl)c1c2c(nc3ccccc13)C(=O)N(C1CCCCC1)C2`, under setting [1], the half-maximal activity concentration (AC50) was 25.1 µM [falling, single point].

Regarding `CCN(CC)c1ccc(C2C(C(=O)Nc3ccccc3C)=C(C)Nc3ncnn32)cc1` (configuration not stated), the concentration at half-maximal activity (AC50) under setting [1] was 0.631 µM [falling, full curve]. Still for that read-out and setting: the value for `O=c1[nH]c2ccc(S(=O)(=O)N3CCN(c4ccccc4F)CC3)cc2s1` was 12.6 µM [falling, partial curve]; that for `COC(=O)CCCCCn1c(-c2ccccc2)cn2c3c(=O)n(C)c(=O)n(C)c3nc12` was 39.8 µM [falling, single point]. For the molecule `CCN(CC)S(=O)(=O)c1ccc2oc(C(=O)N3CCCCCC3)c(C)c2c1`, the concentration at half-maximal activity (AC50) under setting [1] is 10 µM [falling, partial curve].

In the case of `Cc1ccc(C)c(N2CCN(CCCNC(=O)c3cnn(-c4ccccc4)c3C3CCN(C(=O)OC(C)(C)C)CC3)CC2)c1`, the half-maximal activity concentration (AC50) under setting [1] is 10 µM [falling, partial curve]. As to `Cn1c(SCC(=O)Nc2sc3c(c2C#N)CCC3)nnc1C1COc2ccccc2O1` (configuration not stated), the AC50 under setting [1] is 39.8 µM [falling, single point]. The same measure, in the same setting: in the case of `CCn1c(CSc2nc3ccccc3s2)nc2ccccc21` it was 10 µM [falling, partial curve]; in that of `CC(C)n1c(SCC(N)=O)nc2c1c(=O)[nH]c(=O)n2C`, 20 µM [rising, partial curve]; in that of `O=C1CS(=O)(=O)C2(C(=O)N(Cc3ccccc3)c3ccccc32)N1c1ccc(F)c(Cl)c1` (configuration not stated), 31.6 µM [falling, partial curve]. On the same count and under the same terms, the value for `COc1ccc(S(=O)(=O)N(CC(=O)Nc2ccccc2Cl)Cc2ccccc2)cc1` was 0.251 µM [falling, full curve, poor fit]; that for `Cc1ccc(CCNC(=O)CN2C(=O)COc3ccc(S(=O)(=O)N4CCCCCC4)cc32)cc1` was 39.8 µM [falling, single point]; that for `O=C(Nc1cccc(Cl)c1)c1cc(-c2ccc3c(c2)OCO3)on1` was 0.0631 µM [falling, full curve]. Same read-out and setting: in the case of `COc1cccc(-c2nnn(CCC(=O)O)n2)c1` it was 2.51 µM [falling, full curve] [measured here: IkB-luc green channel]; in that of `COc1cc(OC)cc(C(=O)Nc2ccc3nc4n(c(=O)c3c2)CCCCC4)c1`, 15.8 µM [falling, partial curve]. Take `COc1ccccc1C(=O)Oc1c(Sc2ccccc2)c(C)nn1-c1ccccc1`: the AC50 under setting [1] is 3.16 µM [falling, full curve]. As to `O=C(Nc1ccc(F)cc1F)c1cc(S(=O)(=O)N2CCCCC2)c[nH]1`, the half-maximal activity concentration (AC50) under setting [1] is 15.8 µM [falling, partial curve].

Regarding `Cc1ccc(C)c(N2C(=O)N(Cc3cccc(C(F)(F)F)c3)c3ccccc3S2(=O)=O)c1`, under setting [1], the AC50 was 10 µM [falling, partial curve].

Take `CCn1c2c(c(=O)n3ncc(C(=O)N4CCN(c5ccc(C(C)=O)cc5)CC4)c13)CN(Cc1ccc(OC)cc1)CC2`: the concentration at half-maximal activity (AC50) under setting [1] is 15.8 µM [falling, partial curve].

Broadly, the AC50 is the midpoint of the concentration-response curve, whichever way the signal moves.
